The target of series [1] is T1, DmMBD2/3 MBD, tag removed (Drosophila melanogaster) (UniProt Q9VHB7).
T1 sequence (looked up): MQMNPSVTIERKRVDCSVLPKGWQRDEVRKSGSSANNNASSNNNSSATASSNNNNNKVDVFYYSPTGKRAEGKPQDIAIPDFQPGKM
The series can be described thus: NMR. To be noted: 15N-HSQC, no chemical shift changes, recombinant protein, residues 1-87, protein details: thioredoxin tag cleaved by thrombin.

Series [2] has as its system EmMBD2/3 MBD, tag removed (Ephydatia muelleri). The series can be described thus: NMR. As to conditions: 15N-HSQC, recombinant protein, protein details: thioredoxin tag cleaved by thrombin.

For at least one entry, the source does not settle the construct or the ends of the probe. For some of these results: A negative result means that nothing was seen under these conditions. For some of these results: Protein sequences can lack the tags named with them.

For the sequence “GAGGCGCTCGGCGGCAG (double strand) [CpG(x3) 17 bp]”, the binding result in series [1] was “no binding”; in series [2] (fast exchange of CpG-specific and non-specific modes), “binds”.

As to “GAGGCGCTCGGCGGCAG (double strand) [mCpG 17 bp]”, the binding result was “no binding” in series [1] (5-methyl-C at C9 of strand 1 and C8 of strand 2 (central CpG)); “binds” in series [2] (localizes almost exclusively to mCpG, 5-methyl-C at C9 of strand 1 and C8 of strand 2 (central CpG)).

Source of the values: article PMC5240623.
